Test results taken from PMC5959946.
These are yes or no findings as the source states them, for the method shown. Binding seen in cells or lysates may run through a third protein. Some entries that bind do so weakly or less than the wild type.

By UniProt entry, the sequences of proteins in these tests, tags left out.
UniProt P60484: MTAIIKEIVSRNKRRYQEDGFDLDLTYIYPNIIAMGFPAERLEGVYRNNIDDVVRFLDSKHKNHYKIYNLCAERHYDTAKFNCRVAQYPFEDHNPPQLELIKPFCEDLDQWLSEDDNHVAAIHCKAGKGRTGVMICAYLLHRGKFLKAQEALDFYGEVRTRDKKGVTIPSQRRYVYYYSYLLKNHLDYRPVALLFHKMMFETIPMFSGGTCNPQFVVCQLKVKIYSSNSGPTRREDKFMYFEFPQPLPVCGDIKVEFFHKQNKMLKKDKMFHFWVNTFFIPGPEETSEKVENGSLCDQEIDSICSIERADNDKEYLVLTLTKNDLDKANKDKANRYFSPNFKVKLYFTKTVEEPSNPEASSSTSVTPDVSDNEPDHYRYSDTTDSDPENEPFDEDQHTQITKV

Target: PTEN (human (endogenous in 7404 HCC cells)) (UniProt P60484)
Assay: co-IP; endogenous proteins from HCC cell lysates; immunoprecipitation (control IgG or anti-PTEN antibody) and western blot; control, chemerin-overexpressing, chemerin knockdown and chemerin-treated (1 nM) cells

B1: chemokine-like receptor 1 (CMKLR1) (receptor, UniProt Q99788 1-373)
chain: MRMEDEDYNTSISYGDEYPDYLDSIVVLEDLSPLEARVTRIFLVVVYSIVCFLGILGNGLVIIIATFKMKKTVNMVWFLNLAVADFLFNVFLPIHITYAAMDYHWVFGTAMCKISNFLLIHNMFTSVFLLTIISSDRCISVLLPVWSQNHRSVRLAYMACMVIWVLAFFLSSPSLVFRDTANLHGKISCFNNFSLSTPGSSSWPTHSQMDPVGYSRHMVVTVTRFLCGFLVPVLIITACYLTIVCKLQRNRLAKTKKPFKIIVTIIITFFLCWCPYHTLNLLELHHTAMPGSVFSLGLPLATALAIANSCMNPILYVFMGQDFKKFKVALFSRLVNALSEDTGHSSYPSHRSFTKMSSMNERTSMNERETGML
- binding: binds
